Broadly, the IC50 is the concentration that inhibits the measured activity by half.

The chains behind the UniProt entries cited, without tags or fusion partners.
UniProt P46663, whole entry: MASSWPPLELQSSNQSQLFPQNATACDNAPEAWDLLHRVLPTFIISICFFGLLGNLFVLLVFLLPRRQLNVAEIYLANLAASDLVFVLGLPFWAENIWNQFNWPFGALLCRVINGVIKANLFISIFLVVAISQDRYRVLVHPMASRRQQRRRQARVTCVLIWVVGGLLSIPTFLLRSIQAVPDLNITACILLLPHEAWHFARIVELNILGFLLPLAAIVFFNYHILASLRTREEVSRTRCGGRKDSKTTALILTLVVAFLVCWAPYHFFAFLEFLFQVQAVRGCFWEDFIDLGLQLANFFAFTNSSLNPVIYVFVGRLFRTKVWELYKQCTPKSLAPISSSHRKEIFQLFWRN

The target of this assay is BKB1 receptors (Homo sapiens, UniProt P46663). In words: Calcium Mobilization Assay (FLIPR), IMR-90 cells, BKB1. The settings on record: IL-1 induced IMR-90 cells, agonist desArg10-kallidin (DAKD). The procedure: Calcium Mobilization Assay (FLIPR)—Human (IMR-90) lung fibroblast cells expressing native BKB1 receptors were harvested by trypsinization and seeded into black wall/clear bottom 96-well plates (Costar 3904; Corning Life Sciences, Acton, Mass.) at approximately 13,000 cells/well. After 1 day incubation, cells were treated with human IL-1 (0.35 ng/ml) in 10% FBS/MEM for 2 h to up-regulate BKB1 receptors. Induced cells were loaded with fluorescent calcium indicator by incubation with 2.3 µM Fluo-4/acetoxymethyl ester (Invitrogen) at 37° C. for 1.5 h in the presence of an anion transport inhibitor (2.5 mM probenecid in 1% FBS/MEM). Extracellular dye was removed by washing with assay buffer (2.5 mM probenecid, 0.1% BSA in 20 mM HEPES/HBSS without bicarbonate or phenol red, pH 7.5) and cell plates were kept in the dark until used. Test compounds were assayed at eight concentrations in triplicate. Addition of test compounds to the cell plate and incubation for 5 min at 35° C., followed by the addition of 2 to 8 nM final BKB1 agonist desArg^10-kallidin (DAKD, 3×EC50) was carried out in the fluorimetric imaging plate reader (FLIPR; Molecular Devices) while continuously monitoring calcium-dependent fluorescence. […]
Background: Calcium assays in cells follow changes in intracellular calcium, usually with a dye or a luminescent sensor.

The match of structure and compound is tentative.

As to `COc1ccccc1CN(C(=O)Cc1ccc(F)cc1F)C(C(=O)NCC1CCCO1)c1ccc(C)cc1` (stereo not shown), the IC50 came to 1400 nM.

Values taken from patent US9409876B2, “Bradykinin receptor antagonists and pharmaceutical compositions containing them” (DOMPE' FARMACEUTICI S.P.A., priority 2013, dated 2016).
